Counter-ions that a name gives are not always drawn. Some results were stated once for a whole list of compounds, not compound by compound.
Assay: UV/vis absorption in PBS
Type: physicochemical
Conditions: near-infrared (NIR) or visible spectrum

absorption, excitation, and emission maximum wavelengths, ≥ 350 nm:
COCCN(CCOC)C(=O)c1nc(N)c(C(=O)N(CCOC)CCOC)nc1N [Example 2, 3,6-diamino-N^2,N^2,N^5,N^5-tetrakis(2-methoxyethyl)pyrazine-2,5-dicarboxamide]
Nc1nc(C(=O)NCC(O)CO)c(N)nc1C(=O)NCC(O)CO (stereo not shown) [Example 3, 3,6-diamino-N^2,N^5-bis(2,3-dihydroxypropyl)pyrazine-2,5-dicarboxamide]
Nc1nc(C(=O)N[C@@H](CO)C(=O)O)c(N)nc1C(=O)N[C@@H](CO)C(=O)O [Example 4, 3,6-Diamino-N^2,N^5-bis(serine)-pyrazine-2,5-dicarboxamide]
COCCN(CCOC)C(=O)c1nc(N(CCOC)CCOC)c(C(=O)N(CCOC)CCOC)nc1N(CCOC)CCOC [Example 5, 3,6-bis(bis(2-methoxyethyl)amino)-N^2,N^2,N^5,N^5-tetrakis(2-methoxyethyl) pyrazine-2,5-dicarboxamide bis TFA salt]
NCCNC(=O)c1nc(N)c(C(=O)NCCN)nc1N [Example 6, 3,6-diamino-N^2,N^5-bis(2-aminoethyl)pyrazine-2,5-dicarboxamide bis TFA salt]
Nc1nc(C(=O)N[C@H](CC(=O)O)C(=O)O)c(N)nc1C(=O)N[C@H](CC(=O)O)C(=O)O [Example 7, 3,6-Diamino-N^2,N^5-bis(D-Aspartate)-pyrazine-2,5-dicarboxamide]
COCCOCCOCCOCCC(=O)NCCNC(=O)c1nc(N)c(C(=O)NCCNC(=O)CCOCCOCCOCCOC)nc1N [Example 8, 3,6-Diamino-N^2,N^5-bis(14-oxo-2,5,8,11-tetraoxa-15-azaheptadecan-17-yl)pyrazine-2,5-dicarboxamide]
COCCOCCOCCOCCOCCOCCOCCOCCC(=O)NCCNC(=O)c1nc(N)c(C(=O)NCCNC(=O)CCOCCOCCOCCOCCOCCOCCOCCOC)nc1N [Example 9, 3,6-Diamino-N^2,N^5-bis(26-oxo-2,5,8,11,14,17,20,23-octaoxa-27-azanonacosan-29-yl)pyrazine-2,5-dicarboxamide]
COCCOCCOCCOCCOCCOCCOCCOCCOCCOCCOCCOCCC(=O)NCCNC(=O)c1nc(N)c(C(=O)NCCNC(=O)CCOCCOCCOCCOCCOCCOCCOCCOCCOCCOCCOCCOC)nc1N [Example 10, 3,6-Diamino-N^2,N^5-bis(38-oxo-2,5,8,11,14,17,20,23,26,29,32,35-dodecaoxa-39-azahentetracontan-41-yl)pyrazine-2,5-dicarboxamide]
COCCN(CCOC)c1nc(C(=O)N[C@H](CC(=O)O)C(=O)O)c(N2CCOCC2)nc1C#N [Example 11, (R)-2-(6-(bis(2-methoxyethyl)amino)-5-cyano-3-morpholinopyrazine-2-carboxamido)succinic acid]

Reference: patent US8313729B2, “Integrated photoactive small molecules and uses thereof” (Medibeacon, LLC, priority 2007, dated 2012)
